Experimental data: PubChem BioAssay AID720505 (Drosophila RNAi Screening Center, 2013)
In all, the deposit lists about 20,000 reagents; shown is a random part of those that have a named target and a result. Over the whole deposit, about 2,100 (10%) are marked active. 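Raw plate signals without normalisation; calls rest on control-based scores that were not deposited; replicate 2 separates called from uncalled poorly.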 A plus sign joins genes that one reagent is predicted to hit. Not given: the amount of reagent, the time to read-out.

Assay: 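Genes needed for store-operated calcium entry in fly cells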 (primary screen)
Cells: Drosophila S2R+ cells
Reagent: long dsRNA against Drosophila genes
Treatment: thapsigargin (2 µM) in calcium-free buffer to empty internal stores, then 2 mM calcium added back
Measurement: 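Stores emptied by 2 µM thapsigargin without calcium, then 2 mM calcium re-added; fluo-4 fluorescence followed by FLIPR in 384-well plates, per-well averaged endpoint, raw; two screen passes, some wells retested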
Scale: calcium signal and retest calcium signal: higher = more calcium entry after store depletion
Active means: 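About 1500 genes called as lowering calcium entry, by varying amounts, judged against per-plate control wells with STIM1 as positive and Rho1 as negative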
Meaning of the calls: active = called as lowering calcium entry; inactive = not called

| gene knocked down | dsRNA | calcium signal, replicate 1 | calcium signal, replicate 2 | retest calcium signal, replicate 1 | retest calcium signal, replicate 2 | outcome |
| --- | --- | --- | --- | --- | --- | --- |
| TTLL6B | DRSC15932 | 119 | 154 | – | – | inactive |
| betaNACtes4 | DRSC19801 | 105 | 107 | – | – | inactive |
| asRNA:CR31514 + CG12947 | DRSC14575 | 148 | 86.7 | – | – | inactive |
| Jon99Ci | DRSC16860 | 187 | 163 | – | – | inactive |
| CG9981 | DRSC20225 | 74.6 | 111 | – | – | inactive |
| Der-2 | DRSC15021 | 100 | 194 | – | – | inactive |
| nAChRalpha1 | DRSC17008 | 202 | 132 | – | – | inactive |
| Orc2 | DRSC16776 | 85.9 | 113 | – | – | inactive |
| SmydA-7 | DRSC07340 | 70.6 | 128 | – | – | active |
| gl | DRSC16957 | 249 | 181 | – | – | inactive |
| osy | DRSC14903 | 240 | 106 | – | – | inactive |
| osy | DRSC15979 | 252 | 109 | – | – | inactive |
| osy | DRSC15981 | 111 | 132 | – | – | inactive |
| CG15745 (retired record) | DRSC19711 | 142 | 94.9 | – | – | inactive |
| CG11836 | DRSC14396 | 221 | 289 | – | – | inactive |
| PH4alphaNE1 | DRSC16546 | 122 | 148 | – | – | inactive |
| Fis1 | DRSC07772 | 95 | 140 | – | – | inactive |
| Tengl2 | DRSC21968 | 79.5 | 272 | – | – | inactive |
| CG7110 | DRSC03011 | 79.4 | 121 | – | – | inactive |
| CG7110 | DRSC03012 | 125 | 87.2 | – | – | inactive |
| GABA-B-R3 | DRSC00561 | 137 | 151 | – | – | inactive |
| Sobp | DRSC07312 | 180 | 135 | – | – | inactive |
| CG12607 | DRSC08287 | 81.8 | 70.2 | – | – | inactive |
| CG30413 | DRSC04001 | 56.7 | 63.4 | – | – | active |
| CG33453 | DRSC05782 | 80.8 | 115 | – | – | inactive |
| Fuca | DRSC10591 | 95 | 86.5 | – | – | inactive |
| Rip11 | DRSC20000 | 197 | 150 | – | – | inactive |
| CG5199 | DRSC11770 | 93.5 | 110 | – | – | inactive |
| Boh1 | DRSC14487 | 80.5 | 100 | – | – | inactive |
| Tnks | DRSC14154 | 71.2 | 87.2 | – | – | active |
| gem | DRSC06093 | 142 | 193 | – | – | inactive |
| gem | DRSC06847 | 115 | 108 | – | – | inactive |
| CycB | DRSC04605 | 66.5 | 189 | – | – | active |
| Rpt6 | DRSC20571 | 225 | 157 | – | – | inactive |
| phtf | DRSC05023 | 135 | 127 | – | – | inactive |
| CG11584 | DRSC19408 | 112 | 121 | – | – | inactive |
| CG2889 | DRSC18236 | 70.9 | 92.4 | – | – | inactive |
| Ance-5 | DRSC04055 | 105 | 103 | – | – | inactive |
| CG5323 | DRSC06929 | 149 | 196 | – | – | inactive |
| rod | DRSC17047 | 64.2 | 95.4 | – | – | active |
| CG14883 | DRSC15007 | 89.3 | 148 | – | – | inactive |
| CG10077 | DRSC09691 | 167 | 74 | – | – | inactive |
| Sugb | DRSC10815 | 126 | 126 | – | – | inactive |
| CG7296 | DRSC03042 | 93.4 | 121 | 110 | 140 | inactive |
| CG7296 | DRSC22343 | 92.1 | 232 | – | – | inactive |
| MsR1 | DRSC08615 | 87.3 | 43.5 | – | – | inactive |
| ras | DRSC18825 | 113 | 116 | – | – | inactive |
| Spn43Aa | DRSC06117 | 172 | 96.5 | – | – | inactive |
| CIAPIN1 | DRSC03559 | 66.3 | 159 | – | – | active |
| Hip1 | DRSC09812 | 135 | 77.1 | – | – | inactive |
| CG14014 | DRSC02345 | 108 | 114 | – | – | inactive |
| Smug | DRSC15762 | 122 | 156 | – | – | inactive |
| CG11227 | DRSC20476 | 219 | 93.2 | – | – | inactive |
| CG14095 | DRSC10098 | 115 | 205 | – | – | inactive |
| CG13751 | DRSC06422 | 83.3 | 118 | – | – | inactive |
| CG13326 | DRSC06363 | 134 | 195 | – | – | inactive |
| bb8 | DRSC15578 | 227 | 139 | – | – | inactive |
| meigo | DRSC15877 | 96 | 186 | – | – | inactive |
| Gr93c | DRSC14587 | 237 | 180 | – | – | inactive |
| zuc | DRSC02160 | 118 | 122 | – | – | inactive |
| mag | DRSC11787 | 137 | 132 | – | – | inactive |
| CG9877 | DRSC04587 | 136 | 230 | – | – | inactive |
| CG32318 + Klp61F + Psf1 | DRSC23255 | 90.1 | 68 | – | – | inactive |
| CG17298 | DRSC15221 | 106 | 89.1 | – | – | inactive |
| Pfdn2 | DRSC10618 | 123 | 92.1 | – | – | inactive |
| CG31103 | DRSC22324 | 109 | 200 | – | – | inactive |
| CG15014 | DRSC08468 | 97 | 96.3 | – | – | inactive |
| Lcp9 | DRSC04287 | 65.2 | 178 | – | – | active |
| CG9933 | DRSC03276 | 108 | 97.3 | – | – | inactive |
| Act88F | DRSC14105 | 85.6 | 82.7 | – | – | inactive |
| CG14668 | DRSC12254 | 128 | 154 | – | – | inactive |
| ATP8 (retired record) | DRSC21277 | 177 | 83.6 | – | – | inactive |
| wisp | DRSC19703 | 139 | 169 | – | – | inactive |
| wisp | DRSC23092 | 106 | 110 | – | – | inactive |
| lobo | DRSC14662 | 174 | 124 | – | – | inactive |
| lobo | DRSC14663 | 175 | 198 | – | – | inactive |
| mRpL54 | DRSC04545 | 146 | 85 | – | – | inactive |
| Cyp9b1 | DRSC07389 | 160 | 200 | – | – | inactive |
| Prosbeta2R2 | DRSC12193 | 96.9 | 87.2 | – | – | inactive |
| CG1941 | DRSC06802 | 107 | 188 | – | – | inactive |
| Kat60 | DRSC12378 | 110 | 87 | – | – | inactive |
| f-cup | DRSC14139 | 70.8 | 90.8 | – | – | active |
| CG13857 | DRSC14707 | 192 | 145 | – | – | inactive |

Records listed so far whose target name starts with L or l:
| gene knocked down | dsRNA | calcium signal, replicate 1 | calcium signal, replicate 2 | retest calcium signal, replicate 1 | retest calcium signal, replicate 2 | outcome |
| --- | --- | --- | --- | --- | --- | --- |
| Lcp9 | DRSC04287 | 65.2 | 178 | – | – | active |
| lobo | DRSC14662 | 174 | 124 | – | – | inactive |
| lobo | DRSC14663 | 175 | 198 | – | – | inactive |
